Laboratory results: PubChem BioAssay AID652243 (Drosophila RNAi Screening Center, 2013)
Purpose: 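Fly genes required for human androgen receptor driven transcription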 (primary screen). Cells: Drosophila S2R+ cells. Reagent: long dsRNA against Drosophila genes. Duration: 72 h (48 h, then 24 h hormone). Treatment: synthetic androgen R1881 at 10 nM for 24 h. Measurement: 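Per-well raw luminescence of the androgen-driven firefly reporter and of the Renilla control, two replicates each, without normalisation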. Direction: firefly reporter light: higher = more light from androgen-responsive reporter; Renilla control light: higher = more constitutive control signal (cell number, transfection). Hit rule: 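Hit when the log firefly-to-Renilla ratio dropped or increased by a fixed fold versus the mean of GFP or LacZ controls across duplicate plates; lowering cut given as 1.5 and as 3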. Calls: active = hit: reporter lowered or raised; inactive = no hit.
In all, the deposit lists about 24,000 reagents; this is a random part of those with a known target gene and a result. Over the whole deposit, 246 (1%) are marked active. 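Plates not normalised; calls are printed but the firefly/Renilla ratio behind them is not deposited; fold cut for lowering reported inconsistently.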 Raw values are not corrected between plates. Names joined by + are all predicted targets of the reagent. Not stated in the record: the amount of reagent.

With CG31550 [DRSC12197], how do the results read?
firefly reporter light, replicate 1: 1.10e5; firefly reporter light, replicate 2: 1.15e5; Renilla control light, replicate 1: 2.56e6; Renilla control light, replicate 2: 1.88e6; activity call: inactive

For CG31550 [DRSC12198], what does the deposit list?
firefly reporter light, replicate 1: 50317; firefly reporter light, replicate 2: 42025; Renilla control light, replicate 1: 4.33e5; Renilla control light, replicate 2: 3.72e5; activity call: inactive

What did the screen give for CG31550 [DRSC29447]?
firefly reporter light, replicate 1: 8.66e5; firefly reporter light, replicate 2: 7.70e5; Renilla control light, replicate 1: 9.44e5; Renilla control light, replicate 2: 9.44e5; activity call: inactive

With CG30033 [DRSC24832], how do the results read?
firefly reporter light, replicate 1: 8.60e5; firefly reporter light, replicate 2: 1.05e6; Renilla control light, replicate 1: 8.23e5; Renilla control light, replicate 2: 1.14e6; activity call: inactive

Which result is listed for CG1791 [DRSC18141]?
firefly reporter light, replicate 1: 1.48e5; firefly reporter light, replicate 2: 1.62e5; Renilla control light, replicate 1: 8.82e5; Renilla control light, replicate 2: 1.02e6; activity call: inactive

Which result is listed for CG1791 [DRSC29301]?
firefly reporter light, replicate 1: 4.77e5; firefly reporter light, replicate 2: 5.41e5; Renilla control light, replicate 1: 9.88e5; Renilla control light, replicate 2: 1.24e6; activity call: inactive

How did the screen score GAPcenA [DRSC10771]?
firefly reporter light, replicate 1: 2.10e5; firefly reporter light, replicate 2: 1.91e5; Renilla control light, replicate 1: 2.42e6; Renilla control light, replicate 2: 2.03e6; activity call: inactive

For RPA3 [DRSC19658], what does the deposit list?
firefly reporter light, replicate 1: 4.81e5; firefly reporter light, replicate 2: 4.27e5; Renilla control light, replicate 1: 4.93e6; Renilla control light, replicate 2: 3.62e6; activity call: inactive

How did the screen score Tsr1 [DRSC11821]?
firefly reporter light, replicate 1: 34300; firefly reporter light, replicate 2: 24650; Renilla control light, replicate 1: 2.39e5; Renilla control light, replicate 2: 2.99e5; activity call: inactive

For ND-MNLL [DRSC18159], what was measured?
firefly reporter light, replicate 1: 2.28e5; firefly reporter light, replicate 2: 2.54e5; Renilla control light, replicate 1: 1.87e6; Renilla control light, replicate 2: 2.42e6; activity call: inactive

How did the screen score CG33255 (retired record) + hpRNA:CR32205 + CR42838 [DRSC09611]?
firefly reporter light, replicate 1: 1.45e5; firefly reporter light, replicate 2: 1.28e5; Renilla control light, replicate 1: 4.34e5; Renilla control light, replicate 2: 4.58e5; activity call: inactive

What did the screen give for CG34203 [DRSC38897]?
firefly reporter light, replicate 1: 9.01e5; firefly reporter light, replicate 2: 8.49e5; Renilla control light, replicate 1: 1.61e6; Renilla control light, replicate 2: 1.61e6; activity call: inactive
